Measurements published in the supplement of paper PMC7666118.
Some of the results follow.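 How the source made its calls: active = dose-dependent thermal stabilisation significant by F-test of dose-response against flat model at 10% FDR; inactive = not significant.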

Chains of the proteins cited; added tags and fusions are not shown. Lines headed by an entry give the natural chain unless they say otherwise; changes in a name come on top.
UniProt Q9H6Y2: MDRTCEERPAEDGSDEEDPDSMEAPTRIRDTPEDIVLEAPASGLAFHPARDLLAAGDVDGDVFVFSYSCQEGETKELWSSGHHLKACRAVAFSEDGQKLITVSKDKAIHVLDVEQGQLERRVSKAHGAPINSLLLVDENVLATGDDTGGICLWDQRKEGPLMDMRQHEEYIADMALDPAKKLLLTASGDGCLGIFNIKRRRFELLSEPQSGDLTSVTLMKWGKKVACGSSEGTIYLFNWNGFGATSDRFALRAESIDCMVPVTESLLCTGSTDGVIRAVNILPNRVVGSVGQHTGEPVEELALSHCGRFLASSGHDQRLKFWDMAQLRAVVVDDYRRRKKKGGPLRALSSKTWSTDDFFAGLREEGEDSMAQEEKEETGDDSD
UniProt Q8N9V3: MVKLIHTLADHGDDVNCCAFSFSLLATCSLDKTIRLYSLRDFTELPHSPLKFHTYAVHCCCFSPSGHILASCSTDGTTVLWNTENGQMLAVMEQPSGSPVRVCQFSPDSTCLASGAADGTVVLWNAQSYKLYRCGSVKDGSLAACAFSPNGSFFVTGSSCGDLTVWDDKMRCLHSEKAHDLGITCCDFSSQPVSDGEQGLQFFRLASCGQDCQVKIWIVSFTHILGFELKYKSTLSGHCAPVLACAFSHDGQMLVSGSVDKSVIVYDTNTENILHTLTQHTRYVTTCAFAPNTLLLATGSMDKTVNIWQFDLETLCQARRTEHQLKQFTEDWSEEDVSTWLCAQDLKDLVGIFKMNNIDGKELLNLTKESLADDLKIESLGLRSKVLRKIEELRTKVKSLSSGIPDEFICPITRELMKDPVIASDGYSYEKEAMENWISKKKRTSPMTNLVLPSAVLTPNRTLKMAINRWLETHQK
UniProt A4D1P6: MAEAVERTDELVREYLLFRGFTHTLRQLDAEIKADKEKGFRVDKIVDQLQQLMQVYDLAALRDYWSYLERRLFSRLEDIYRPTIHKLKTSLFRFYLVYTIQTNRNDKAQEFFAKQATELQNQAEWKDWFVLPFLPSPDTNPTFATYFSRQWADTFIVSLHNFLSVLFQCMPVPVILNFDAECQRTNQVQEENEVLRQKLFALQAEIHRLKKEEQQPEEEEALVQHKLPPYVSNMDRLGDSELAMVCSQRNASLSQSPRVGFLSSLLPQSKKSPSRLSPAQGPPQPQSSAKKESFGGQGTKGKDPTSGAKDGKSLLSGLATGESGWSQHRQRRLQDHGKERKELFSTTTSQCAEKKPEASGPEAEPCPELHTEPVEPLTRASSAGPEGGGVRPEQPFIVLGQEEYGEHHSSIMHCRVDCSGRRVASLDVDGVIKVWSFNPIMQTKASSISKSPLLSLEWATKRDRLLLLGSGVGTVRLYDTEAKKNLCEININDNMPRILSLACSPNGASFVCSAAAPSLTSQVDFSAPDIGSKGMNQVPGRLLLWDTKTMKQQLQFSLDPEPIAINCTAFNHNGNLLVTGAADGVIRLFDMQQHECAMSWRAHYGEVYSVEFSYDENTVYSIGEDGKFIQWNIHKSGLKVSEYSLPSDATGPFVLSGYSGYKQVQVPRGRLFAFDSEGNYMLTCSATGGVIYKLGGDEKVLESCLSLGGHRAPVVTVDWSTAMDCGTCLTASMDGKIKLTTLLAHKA
UniProt P67809, whole entry: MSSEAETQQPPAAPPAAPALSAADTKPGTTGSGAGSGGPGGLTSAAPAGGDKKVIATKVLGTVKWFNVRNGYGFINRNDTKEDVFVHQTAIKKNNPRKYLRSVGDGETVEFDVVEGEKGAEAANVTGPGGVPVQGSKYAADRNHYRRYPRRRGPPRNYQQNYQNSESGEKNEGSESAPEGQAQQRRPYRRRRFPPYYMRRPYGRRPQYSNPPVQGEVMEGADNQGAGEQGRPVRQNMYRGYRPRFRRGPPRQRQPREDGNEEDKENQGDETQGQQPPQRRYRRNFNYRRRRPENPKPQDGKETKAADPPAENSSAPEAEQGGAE
UniProt P98170, whole entry: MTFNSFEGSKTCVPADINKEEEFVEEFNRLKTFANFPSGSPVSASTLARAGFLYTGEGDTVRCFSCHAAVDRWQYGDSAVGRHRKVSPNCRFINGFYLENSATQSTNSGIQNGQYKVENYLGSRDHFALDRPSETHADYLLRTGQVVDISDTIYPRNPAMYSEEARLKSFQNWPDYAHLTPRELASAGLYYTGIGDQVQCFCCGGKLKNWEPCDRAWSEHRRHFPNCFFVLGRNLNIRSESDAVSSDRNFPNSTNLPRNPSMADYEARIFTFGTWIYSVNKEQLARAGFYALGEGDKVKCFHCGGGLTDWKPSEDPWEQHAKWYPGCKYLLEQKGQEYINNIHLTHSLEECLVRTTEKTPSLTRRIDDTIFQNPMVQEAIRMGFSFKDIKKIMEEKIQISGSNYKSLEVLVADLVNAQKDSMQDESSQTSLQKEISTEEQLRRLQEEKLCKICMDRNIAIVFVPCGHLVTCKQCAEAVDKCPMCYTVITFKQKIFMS
UniProt Q9HAU5: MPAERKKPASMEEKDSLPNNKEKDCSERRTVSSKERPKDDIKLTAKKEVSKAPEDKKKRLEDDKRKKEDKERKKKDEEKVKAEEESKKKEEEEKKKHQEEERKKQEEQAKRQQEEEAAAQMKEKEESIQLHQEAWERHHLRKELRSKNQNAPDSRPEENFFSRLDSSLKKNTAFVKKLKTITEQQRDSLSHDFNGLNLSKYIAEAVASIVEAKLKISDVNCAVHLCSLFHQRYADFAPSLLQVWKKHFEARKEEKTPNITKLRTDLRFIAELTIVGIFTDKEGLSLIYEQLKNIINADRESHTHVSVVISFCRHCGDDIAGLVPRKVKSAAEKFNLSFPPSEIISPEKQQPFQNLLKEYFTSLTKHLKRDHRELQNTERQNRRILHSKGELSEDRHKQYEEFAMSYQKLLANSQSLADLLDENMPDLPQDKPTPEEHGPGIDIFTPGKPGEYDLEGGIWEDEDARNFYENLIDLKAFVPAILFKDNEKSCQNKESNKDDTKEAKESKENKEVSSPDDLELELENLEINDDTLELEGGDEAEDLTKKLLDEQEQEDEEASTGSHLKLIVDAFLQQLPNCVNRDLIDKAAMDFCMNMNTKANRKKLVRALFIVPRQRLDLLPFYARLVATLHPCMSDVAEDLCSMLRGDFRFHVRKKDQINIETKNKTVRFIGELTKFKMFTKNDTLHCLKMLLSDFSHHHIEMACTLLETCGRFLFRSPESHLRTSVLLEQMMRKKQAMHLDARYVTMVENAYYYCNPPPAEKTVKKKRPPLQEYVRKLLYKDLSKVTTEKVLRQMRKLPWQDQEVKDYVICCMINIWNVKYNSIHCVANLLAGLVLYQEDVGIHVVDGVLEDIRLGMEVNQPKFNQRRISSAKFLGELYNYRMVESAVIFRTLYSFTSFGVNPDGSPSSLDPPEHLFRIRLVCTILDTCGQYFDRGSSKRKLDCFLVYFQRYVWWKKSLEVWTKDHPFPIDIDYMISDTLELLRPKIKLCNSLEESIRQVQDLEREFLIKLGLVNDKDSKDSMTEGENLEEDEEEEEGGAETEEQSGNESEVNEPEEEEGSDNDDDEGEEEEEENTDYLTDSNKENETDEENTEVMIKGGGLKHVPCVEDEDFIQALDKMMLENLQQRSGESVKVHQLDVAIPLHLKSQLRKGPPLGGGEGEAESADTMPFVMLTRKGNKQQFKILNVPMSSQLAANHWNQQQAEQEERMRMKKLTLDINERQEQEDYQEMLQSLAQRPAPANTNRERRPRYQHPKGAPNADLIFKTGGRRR
UniProt O14933: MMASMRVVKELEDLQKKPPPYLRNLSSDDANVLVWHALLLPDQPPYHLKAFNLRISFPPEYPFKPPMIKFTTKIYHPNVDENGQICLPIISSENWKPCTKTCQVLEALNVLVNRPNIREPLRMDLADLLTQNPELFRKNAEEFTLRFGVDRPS
UniProt Q16763: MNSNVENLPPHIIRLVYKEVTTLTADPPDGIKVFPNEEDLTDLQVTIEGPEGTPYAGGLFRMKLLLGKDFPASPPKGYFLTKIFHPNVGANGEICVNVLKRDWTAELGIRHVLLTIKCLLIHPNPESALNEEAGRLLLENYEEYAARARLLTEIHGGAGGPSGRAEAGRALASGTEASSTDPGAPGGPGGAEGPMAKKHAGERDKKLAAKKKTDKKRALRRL
UniProt P62837, whole entry: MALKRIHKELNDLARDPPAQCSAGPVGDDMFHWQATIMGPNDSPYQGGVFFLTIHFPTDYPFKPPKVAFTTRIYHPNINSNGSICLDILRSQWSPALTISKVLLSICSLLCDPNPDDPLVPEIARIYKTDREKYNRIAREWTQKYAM
UniProt P12956: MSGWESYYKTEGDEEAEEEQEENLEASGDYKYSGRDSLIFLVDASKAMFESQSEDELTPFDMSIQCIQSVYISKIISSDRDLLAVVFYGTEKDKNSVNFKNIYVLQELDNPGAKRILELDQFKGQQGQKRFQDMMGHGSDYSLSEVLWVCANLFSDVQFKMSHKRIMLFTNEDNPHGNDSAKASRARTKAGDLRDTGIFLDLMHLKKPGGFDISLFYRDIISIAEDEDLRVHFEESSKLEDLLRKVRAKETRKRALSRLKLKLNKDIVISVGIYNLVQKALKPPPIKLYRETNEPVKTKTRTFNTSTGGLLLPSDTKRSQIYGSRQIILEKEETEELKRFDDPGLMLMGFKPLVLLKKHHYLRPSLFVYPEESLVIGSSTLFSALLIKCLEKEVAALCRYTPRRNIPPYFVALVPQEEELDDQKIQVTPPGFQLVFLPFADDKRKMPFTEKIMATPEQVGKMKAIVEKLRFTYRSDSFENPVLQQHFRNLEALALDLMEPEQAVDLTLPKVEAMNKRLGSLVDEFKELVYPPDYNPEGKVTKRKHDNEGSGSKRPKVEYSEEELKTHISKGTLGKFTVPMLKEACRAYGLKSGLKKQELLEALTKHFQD
UniProt Q8IZH2: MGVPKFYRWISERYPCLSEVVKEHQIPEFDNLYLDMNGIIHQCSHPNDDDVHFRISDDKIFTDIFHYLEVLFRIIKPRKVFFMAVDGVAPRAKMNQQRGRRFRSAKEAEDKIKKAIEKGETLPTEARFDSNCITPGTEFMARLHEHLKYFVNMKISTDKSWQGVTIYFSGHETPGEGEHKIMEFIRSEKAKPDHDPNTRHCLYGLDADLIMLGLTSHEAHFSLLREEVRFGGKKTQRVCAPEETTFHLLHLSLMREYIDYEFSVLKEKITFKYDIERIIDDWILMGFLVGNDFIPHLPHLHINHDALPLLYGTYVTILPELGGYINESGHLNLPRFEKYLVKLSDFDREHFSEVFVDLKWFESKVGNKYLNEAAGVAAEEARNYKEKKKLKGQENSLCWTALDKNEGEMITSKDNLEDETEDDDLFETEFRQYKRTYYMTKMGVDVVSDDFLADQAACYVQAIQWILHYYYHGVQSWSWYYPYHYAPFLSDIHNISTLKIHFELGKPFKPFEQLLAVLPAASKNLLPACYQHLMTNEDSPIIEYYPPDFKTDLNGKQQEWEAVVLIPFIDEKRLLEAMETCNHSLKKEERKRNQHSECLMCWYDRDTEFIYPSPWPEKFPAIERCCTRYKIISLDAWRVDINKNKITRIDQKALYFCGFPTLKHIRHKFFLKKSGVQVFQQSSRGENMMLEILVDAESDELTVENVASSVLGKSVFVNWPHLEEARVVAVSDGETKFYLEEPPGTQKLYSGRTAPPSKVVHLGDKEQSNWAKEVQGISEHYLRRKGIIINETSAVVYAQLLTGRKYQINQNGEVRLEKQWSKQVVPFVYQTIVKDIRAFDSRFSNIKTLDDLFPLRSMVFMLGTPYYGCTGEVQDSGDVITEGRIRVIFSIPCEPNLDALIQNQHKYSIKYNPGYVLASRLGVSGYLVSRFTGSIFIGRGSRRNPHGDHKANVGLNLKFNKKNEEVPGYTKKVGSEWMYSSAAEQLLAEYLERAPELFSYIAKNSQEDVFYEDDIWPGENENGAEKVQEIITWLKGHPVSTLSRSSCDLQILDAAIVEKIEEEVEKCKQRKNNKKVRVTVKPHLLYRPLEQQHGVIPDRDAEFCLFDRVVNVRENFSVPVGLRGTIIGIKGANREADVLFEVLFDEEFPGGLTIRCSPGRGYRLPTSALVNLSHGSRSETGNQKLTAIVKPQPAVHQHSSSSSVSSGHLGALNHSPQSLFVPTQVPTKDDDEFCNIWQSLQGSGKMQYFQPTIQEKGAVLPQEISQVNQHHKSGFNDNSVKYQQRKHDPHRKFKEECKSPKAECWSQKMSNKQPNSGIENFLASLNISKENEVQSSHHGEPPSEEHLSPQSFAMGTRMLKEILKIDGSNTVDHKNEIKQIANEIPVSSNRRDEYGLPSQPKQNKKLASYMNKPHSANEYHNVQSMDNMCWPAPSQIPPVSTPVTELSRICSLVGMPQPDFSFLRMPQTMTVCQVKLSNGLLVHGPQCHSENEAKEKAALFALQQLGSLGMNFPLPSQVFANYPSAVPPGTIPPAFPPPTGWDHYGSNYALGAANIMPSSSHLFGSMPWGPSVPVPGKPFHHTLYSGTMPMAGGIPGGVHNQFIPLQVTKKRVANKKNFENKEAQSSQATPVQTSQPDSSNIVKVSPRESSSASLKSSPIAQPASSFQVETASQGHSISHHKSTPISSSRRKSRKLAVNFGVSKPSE

Compound: Nc1nc2c(ncn2[C@@H]2O[C@H](COP(=O)(O)OP(=O)(O)OP(=O)(O)O)[C@@H](O)[C@H]2O)c(=O)[nH]1
Experiment: dose-dependent thermal stabilisation call (2D-TPP, DLPTP, 10% FDR) (binary (1 = stabilised)); higher = stabilised by the compound
Conditions: system: Jurkat gel-filtered lysate; concentration range 1-500 µM

dose-dependent thermal stabilisation call, inactive:
WDR55 (UniProt Q9H6Y2) 0
VPS41 (UniProt P49754) 0
USP1 (UniProt O94782) 0
VCP (UniProt P55072) 0
WDR37 (UniProt Q9Y2I8) 0
UXT (UniProt Q9UBK9) 0
WDSUB1 (UniProt Q8N9V3) 0
ZC3H4 (UniProt Q9UPT8) 0
UBR4 (UniProt Q5T4S7) 0
WDR91 (UniProt A4D1P6) 0
YBX1 (UniProt P67809) 0
WDR48 (UniProt Q8TAF3) 0
XIAP (UniProt P98170) 0
VPS13B (UniProt Q7Z7G8) 0
VAPA (UniProt Q9P0L0) 0
VPS13C (UniProt Q709C8) 0
ZBTB7A (UniProt O95365) 0
UBN1 (UniProt Q9NPG3) 0
WASF2 (UniProt Q9Y6W5) 0
UPF2 (UniProt Q9HAU5) 0
ZC3H18 (UniProt Q86VM9) 0
UIMC1 (UniProt Q96RL1) 0
WDR45 (UniProt Q9Y484) 0
USO1 (UniProt O60763) 0
UBE2L6 (UniProt O14933) 0
WDR43 (UniProt Q15061) 0
UBE2S (UniProt Q16763) 0
YWHAZ (UniProt P63104) 0
WWP2 (UniProt O00308) 0
UBE4A (UniProt Q14139) 0
ZC4H2 (UniProt Q9NQZ6) 0
UBE2D2 (UniProt P62837) 0
XRCC6 (UniProt P12956) 0

A run of entries taken from the entries so far, as a working copy:
dose-dependent thermal stabilisation call, inactive:
ZC3H18 (UniProt Q86VM9) 0
UIMC1 (UniProt Q96RL1) 0

Following part.

dose-dependent thermal stabilisation call, active:
XRN1 (UniProt Q8IZH2) 1
UBE3C (UniProt Q15386) 1
WDR92 (UniProt Q96MX6) 1
